No constants are given. Whether binding was seen depends on the method and setting. Some results given as binding are weak or reduced against the parent protein; the word gives no strength.
Molecular target: human NHE1 R651-D692 (H2) (human) (UniProt P19634)
Experiment: NMR chemical shifts against peptide concentration; 1H,15N HSQC spectra of NHE1 H2 at different concentrations; both purified

In the case of “human NHE1 R651-D692 (H2) (from UniProt P19634 651-692) (peptide)”, the binding is reported as “binds weakly”.
